Binding data for one molecule are collected here from paper PMC10575725.

The chains behind the UniProt entries cited, without tags or fusion partners.
UniProt Q8R4B8: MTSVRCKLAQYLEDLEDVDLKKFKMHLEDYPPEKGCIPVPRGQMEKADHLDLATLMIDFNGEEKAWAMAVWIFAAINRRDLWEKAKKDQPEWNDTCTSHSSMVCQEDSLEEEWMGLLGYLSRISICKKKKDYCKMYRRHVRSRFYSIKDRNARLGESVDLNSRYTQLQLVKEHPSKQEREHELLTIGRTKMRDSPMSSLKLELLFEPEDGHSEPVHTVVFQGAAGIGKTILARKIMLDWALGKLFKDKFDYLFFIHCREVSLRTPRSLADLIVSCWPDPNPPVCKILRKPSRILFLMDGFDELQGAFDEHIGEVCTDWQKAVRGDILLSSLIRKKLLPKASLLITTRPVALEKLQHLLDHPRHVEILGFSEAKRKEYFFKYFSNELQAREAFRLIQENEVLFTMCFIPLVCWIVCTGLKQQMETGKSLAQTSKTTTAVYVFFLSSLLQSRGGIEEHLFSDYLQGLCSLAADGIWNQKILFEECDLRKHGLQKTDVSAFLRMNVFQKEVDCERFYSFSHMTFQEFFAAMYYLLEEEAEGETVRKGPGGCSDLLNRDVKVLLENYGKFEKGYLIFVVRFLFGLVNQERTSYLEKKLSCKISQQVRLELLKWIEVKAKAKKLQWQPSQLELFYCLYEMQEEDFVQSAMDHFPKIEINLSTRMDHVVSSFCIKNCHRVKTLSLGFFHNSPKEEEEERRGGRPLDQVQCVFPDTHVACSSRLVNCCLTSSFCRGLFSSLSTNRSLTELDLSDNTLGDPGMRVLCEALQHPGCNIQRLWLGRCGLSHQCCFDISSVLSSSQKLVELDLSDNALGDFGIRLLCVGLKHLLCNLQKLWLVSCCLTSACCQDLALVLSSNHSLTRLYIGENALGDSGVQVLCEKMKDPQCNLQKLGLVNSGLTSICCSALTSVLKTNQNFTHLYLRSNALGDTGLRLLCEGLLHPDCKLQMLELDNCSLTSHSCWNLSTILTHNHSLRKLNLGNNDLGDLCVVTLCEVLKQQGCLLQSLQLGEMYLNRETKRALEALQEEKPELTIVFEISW

These are yes or no findings as the source states them, for the method shown. In cells and extracts the contact can be indirect. These calls come from enrichment with a bait or labelling near it, and not all partners need be listed.

The assay concerns the target NLRP3 (NOD-, LRR-, and pyrin domain-containing protein 3), endogenous, mouse peritoneal macrophages (mouse (endogenous in peritoneal macrophages)) (UniProt Q8R4B8). As to the kind of experiment: affinity purification with mass spectrometry; anti-NLRP3 antibody incubated with total cell lysates of LPS-stimulated mouse primary peritoneal macrophages; complex separated by SDS-PAGE, LC-MS/MS.

B1: HERC6 (HECT domain- and RCC1-like domain-containing protein 6), endogenous, mouse peritoneal macrophages (enzyme, UniProt F2Z461 1-1003)
chain: MYFSWAAGSRKPRRLKAGTSGIELLQAASGEHHSLLLFSNHRVYSCGDNSWGQLGQRRDQSTERPEPIQALNDLHVDLVSCGKEHSVAVCHKGKVFAWGAGSEGQLGIGEFKEISFMPTKIKALAGIKIIQVSCGHYHSLALSEDGHVFSWGRNSEGQLGLGKNSRSQAIPQKVKSLEGIPLAQVAAGGTHSFALSLTGTSFGWGSNRSGQLALSGNKVKEQIYKPHSIGALKNLSVIYISCGYEHTAVLTEEGQVFTFGGNSSGQLQPSPRSGQRGPQLIEGIGGRVSQIECASYHTIAYVYTTGQVVSLGRGPSHTSNPTHQEAPAENSDITCLLAAEDLVDIEVKDIFAGAHANFVTTRRVSHTRSTGVSMKILPEIIRINQSLVKKWRAANKRKDREGAKREISLIFSSSACLTASFLKKRDAGENNLIDVDLKLARDVFKKLTTEKWISSLITTCLEEYLLRDLPYSSPHQEALLVFLLLPECSIMQDPKNWKTLAFEFAKAIHKMGPQSLAFLRTCWASLEVSSLNILVQMLKKAIISQIQYGVATEQYITNIKVLLEVIKEVHKANCQLPESAFIINELSGIFNFDAEAGRMFIRHNDLDCTESSDMVVFSDFLFVFDLPSKIKLMKCDSFVKLMSEVMAFPEKMSSPPYLILKVRRSHLVEDTLRQLRQVEDFDLRKQLSVGFINEIRPEAGGVSSEFFHCIFEEMTDPKYEMFIYPEKGSSMWFPVNPKFEKSSYFLFGILCGLSLHNLKVINLPFPLALYKKLLNQKPSLEDLKELSLPLGRNLQEVLNCEAGDIEELHMYFSIYWDQKDVDLIPDGISVPVNETNKRDYVSKYVDYIFNISIKTIYEEFHRGFYKVCNWDIIRQFQPEELMTAIIGNATCDWKQFENNSKYKDGYDKSHPTILLFWKAFHDLTLDEKKKFLLFLTGCDRLHVKGLQNEGIVFRCSETFSEEDNPRSLTCHRMLDLPKYSSMRRMKEALQVAINNSTGFVSQE
In the case of B1, the binding result is reported as “binds”.
